According to article PMC7819943, “Rice protein-binding microarrays: a tool to detect cis-acting elements near promoter regions in rice”:
This is one part of the list.

Chains of the proteins cited; added tags and fusions are not shown.
UniProt Q0JBA9, entry or part of it: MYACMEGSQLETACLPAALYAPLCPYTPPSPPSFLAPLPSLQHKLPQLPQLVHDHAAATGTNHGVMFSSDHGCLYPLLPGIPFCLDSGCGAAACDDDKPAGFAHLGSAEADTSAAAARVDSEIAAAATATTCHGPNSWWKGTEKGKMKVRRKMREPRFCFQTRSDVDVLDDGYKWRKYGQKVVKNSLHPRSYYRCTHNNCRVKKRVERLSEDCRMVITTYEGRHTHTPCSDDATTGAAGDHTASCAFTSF

What follows are sequences tested against OsWRKY34 (Oryza sativa, UniProt Q0JBA9 1-250) (assay: protein-binding microarray (RPBM); PBS, 2% BSA, 51.3 ng/ul salmon testes DNA, 50 uM zinc acetate, 200 nM TF, 25 C, 1 h; high values mean tight binding). Details: protein: recombinant; tags: N-terminal polyhistidine and DsRed monomer fusion (pET32a); label: CyDye5-dUTP incorporated in the synthesized complementary strand; 3' TTTTT single-stranded linker to array surface; dsDNA, one strand shown.
Outline: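 The binding signal for each feature is its fluorescence intensity in arbitrary units. An Axon 4000B scanner was used to read a custom Agilent array that had been made double-stranded with Cy5-dUTP primer extension, blocked with 2% BSA, incubated at 25 °C for 1 h with 200 nM protein in PBS, 2% BSA, salmon testes DNA and 50 µM zinc acetate, and washed. The protein was an N-terminal polyhistidine–DsRed transcription factor fusion from E. coli BL21-CodonPlus, purified on Ni–NTA.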
With “CCACCACTCACCTCACTCACGTGACGACTCGTCCAACCCACGGAGTCACCTAGTGCAG” the binding signal was 10900 fluorescence intensity (a.u.). “TTATGAAGTCGGCCAGTTGTTGTCGTATATAACCGAAAATCGGAGTCACCTAGTGCAG” was tested, and the binding signal was 8820 fluorescence intensity (a.u.). “TGTATTTCTATTGGACTCTCCTTTTCTTTTTTTTCTTTTTCGGAGTCACCTAGTGCAG” was tested, and the binding signal was 9580 fluorescence intensity (a.u.). “GCTTTATGTAGATATCTCTATCACTCGCTCGCTGGACGACCGGAGTCACCTAGTGCAG” was tested, and the binding signal was 9470 fluorescence intensity (a.u.). In the case of “ACGACCACTTCCGCGACGAGATCACCGTAGCGTTACAGCACGGAGTCACCTAGTGCAG”, the binding signal is reported as 8720 fluorescence intensity (a.u.). “GCTCTTGTTTGTCCCGGCTTCCCTGTACGTATGTGTTTCCCGGAGTCACCTAGTGCAG” was tested, and the binding signal was 11500 fluorescence intensity (a.u.). For “GCGTGCTAAACCCTTGTGATCCGTGTATTTAACCACCTTCCGGAGTCACCTAGTGCAG”, the binding signal was 11700 fluorescence intensity (a.u.). “TACCTACCTCGTGAAACTTTGCCGGCAGCATGAACTGATCCGGAGTCACCTAGTGCAG” was tested, and the binding signal was 8570 fluorescence intensity (a.u.). With “GTGTGACATGTGTAAAAGTTTTTTCTAGCAATTTTTTTTCCGGAGTCACCTAGTGCAG” the binding signal was 9090 fluorescence intensity (a.u.). “GTCCATTTTATTCCTTGAATTTCGCTCGAAGGTTATTTTTCGGAGTCACCTAGTGCAG” was tested, and the binding signal was 8640 fluorescence intensity (a.u.). With “AGCACCGATTTCTATAGCACGATTGGCCAGTTGCAACTTGCGGAGTCACCTAGTGCAG” the binding signal was 8080 fluorescence intensity (a.u.). With “AGTCAGCATAGACCCACGTGGGCCCCATATGTCAGGATGCCGGAGTCACCTAGTGCAG” the binding signal was 8490 fluorescence intensity (a.u.). “TCCTCTACGTGAATTCTACTCTTCTACTGCTTTACGTGTCCGGAGTCACCTAGTGCAG” was tested, and the binding signal was 8900 fluorescence intensity (a.u.). With “CCGCGGCCCAGCTTACAGGCCCAGTTTTTTTCTCCAATACCGGAGTCACCTAGTGCAG” the binding signal was 8520 fluorescence intensity (a.u.). “GTACAATTAGTTTTTTCTTTATCGATATTTAATACTCTTTCGGAGTCACCTAGTGCAG” was tested, and the binding signal was 11700 fluorescence intensity (a.u.). In the case of “CTTGATTCCCTGCAGATTTCCATGCGCAGCCAGCATCTTGCGGAGTCACCTAGTGCAG”, the binding signal is reported as 8230 fluorescence intensity (a.u.). “GAGGGTCTCGGTGACGGCGGCGACGGAAGCGGGGTCGGGGCGGAGTCACCTAGTGCAG” was tested, and the binding signal was 8740 fluorescence intensity (a.u.). With “CAAAGGTTCTAATGTTTGACCTCATTCTTATCTAAAACGACGGAGTCACCTAGTGCAG” the binding signal was 9440 fluorescence intensity (a.u.). “CATCTGACGTCTTTGCTCCACCTGGTTCTTAATGACATTTCGGAGTCACCTAGTGCAG” was tested, and the binding signal was 9630 fluorescence intensity (a.u.). For “TGATTCTTCAGCTGTGTTAGGATTATTTACCTTTCACATACGGAGTCACCTAGTGCAG”, the binding signal was 8690 fluorescence intensity (a.u.). For “CTCTCATTTAGCTTTGCCTATTTGTGCCGCCATAGATCTACGGAGTCACCTAGTGCAG”, the binding signal was 8130 fluorescence intensity (a.u.). “AGTAATTTGTTAATCCTCTGTTTCATTTTTGCTTAGGGATCGGAGTCACCTAGTGCAG” was tested, and the binding signal was 10200 fluorescence intensity (a.u.). With “CGCGCGCCGCGCGCGGCTGCGTTGGTTTTGGGGTTTTGGACGGAGTCACCTAGTGCAG” the binding signal was 10600 fluorescence intensity (a.u.). In the case of “GTGCAAACTAGGTCCCTCAGCAGTTTTGACTCCGGTTTTACGGAGTCACCTAGTGCAG”, the binding signal is reported as 9160 fluorescence intensity (a.u.). “GTTGAGCTACGCTCACTTTGCAATATACTACCTCTATTTCCGGAGTCACCTAGTGCAG” was tested, and the binding signal was 8290 fluorescence intensity (a.u.). With “ACGCCCGCTTGATCCGCCTGCTGCGCGCGCGCGAGTTTTTCGGAGTCACCTAGTGCAG” the binding signal was 9160 fluorescence intensity (a.u.). “GTATAGGGGAGAGGGTGGGCGGGTGATCACTGGGTGGGTGCGGAGTCACCTAGTGCAG” was tested, and the binding signal was 12200 fluorescence intensity (a.u.). “GCTAATAAACTGGCCTGTAACCCGCGCATTTCGCACCCATCGGAGTCACCTAGTGCAG” was tested, and the binding signal was 8790 fluorescence intensity (a.u.). With “AAACAGACCCTTAATATGCTATATTTGTCTCCAATAAAACCGGAGTCACCTAGTGCAG” the binding signal was 8480 fluorescence intensity (a.u.). With “GCGCCGGCCTCGTCAATCCCATCGATCGATCTCGCCGTCGCGGAGTCACCTAGTGCAG” the binding signal was 9780 fluorescence intensity (a.u.). In the case of “AGTTACCTTTGTTTTTGTTCTAAGTTACTTCTATAATATACGGAGTCACCTAGTGCAG”, the binding signal is reported as 9850 fluorescence intensity (a.u.). “CTGTTTGTCTATCTTCTTCTTGCCTTGGCAACAACAAAATCGGAGTCACCTAGTGCAG” was tested, and the binding signal was 8770 fluorescence intensity (a.u.). For “TTTTCTTTTTCTACTGGAGTCGGACACGAGATGTTTTTTTCGGAGTCACCTAGTGCAG”, the binding signal was 8390 fluorescence intensity (a.u.). “GAAGGCATTTTTATTGTCATCCTAGTATATCACATATCATCGGAGTCACCTAGTGCAG” was tested, and the binding signal was 8030 fluorescence intensity (a.u.). For “ATAGCTACCAAATTTCCTGTGTTGACCATTGACAATTTTCCGGAGTCACCTAGTGCAG”, the binding signal was 10100 fluorescence intensity (a.u.). For “TGACTTGTTGTAGACGCGTGACGTGGCTTGGCTTATTTTTCGGAGTCACCTAGTGCAG”, the binding signal was 8900 fluorescence intensity (a.u.). In the case of “CAGTTTTGTTGTCATGCCATCTTATCATGTCCTTTAAATTCGGAGTCACCTAGTGCAG”, the binding signal is reported as 14400 fluorescence intensity (a.u.). In the case of “CATCTCCGTCCGCCGGCGTGCTCCTCGCCCCGCATCAGCTCGGAGTCACCTAGTGCAG”, the binding signal is reported as 8750 fluorescence intensity (a.u.). In the case of “TCATCCCCTGATCGTCATCAGCATTCTCACCGTCGGCGCTCGGAGTCACCTAGTGCAG”, the binding signal is reported as 8600 fluorescence intensity (a.u.). With “CAGCCATCCATCCCACCCACACGTCACCACCCGCGCATCCCGGAGTCACCTAGTGCAG” the binding signal was 8270 fluorescence intensity (a.u.). With “ACTAATTTGCGAGACGAATCTTTTAAGTATAATTTCTCTACGGAGTCACCTAGTGCAG” the binding signal was 8700 fluorescence intensity (a.u.). For “ATCTCAAGCACTTGCATGTTTATTTTATCTCACTGGCTATCGGAGTCACCTAGTGCAG”, the binding signal was 9320 fluorescence intensity (a.u.). With “ATTTTTTTTGTCAAACTGCCACGAAAGCGTCACGTTAATACGGAGTCACCTAGTGCAG” the binding signal was 8240 fluorescence intensity (a.u.). “CTTTCTTTCTTTCTTTCTTCTTTTTTTTCTTTTTTTTTTGCGGAGTCACCTAGTGCAG” was tested, and the binding signal was 8640 fluorescence intensity (a.u.). For “GCGTTTTGCGCCCTCGTGACTCGCCGCCGACACTCGCCAACGGAGTCACCTAGTGCAG”, the binding signal was 9360 fluorescence intensity (a.u.). “ACTTTTTTCATGCGACATTTTTCTTCATCACTCTGAAGACCGGAGTCACCTAGTGCAG” was tested, and the binding signal was 12100 fluorescence intensity (a.u.). With “GCCCCGCTGCCTGATGCCATCGCTGCTTGGACTGCCCCATCGGAGTCACCTAGTGCAG” the binding signal was 10800 fluorescence intensity (a.u.). “ACGAGTCTCCGACCACTTCCCACACCGGCGCCTCCACGCCCGGAGTCACCTAGTGCAG” was tested, and the binding signal was 8320 fluorescence intensity (a.u.). In the case of “CGGTGGGCTGGAGCTGATACGGGTTCTGGGGCAGGGAGCTCGGAGTCACCTAGTGCAG”, the binding signal is reported as 9910 fluorescence intensity (a.u.). “AACAGGTGGTGTAGTGACTAGTGAGGTGAGGGAGGAGGGGCGGAGTCACCTAGTGCAG” was tested, and the binding signal was 12600 fluorescence intensity (a.u.). For “ACACTTCTATCGGCTTCTTTATCTGTACACCATCAGCCCACGGAGTCACCTAGTGCAG”, the binding signal was 10300 fluorescence intensity (a.u.). With “ACCTCCATCGTTTCCGCACGCACGTTTTTCAAACCGTTAACGGAGTCACCTAGTGCAG” the binding signal was 9080 fluorescence intensity (a.u.). With “CAGGAGGGGTGGGTTGTTGTTCGGTGGTGTGGACCCGTGCCGGAGTCACCTAGTGCAG” the binding signal was 17700 fluorescence intensity (a.u.). “TTTTTAGCCTTTACTTTTAATTGCTACGAATACTTATATACGGAGTCACCTAGTGCAG” was tested, and the binding signal was 9160 fluorescence intensity (a.u.).
